Source: article PMC8003104
No constants are given. Whether binding was seen depends on the method and setting. In cells and extracts the contact can be indirect. Some results given as binding are weak or reduced against the parent protein; the word gives no strength. Sequences can lack the tags named with a protein.

By UniProt entry, the sequences of proteins in these tests, tags left out.
UniProt P10415: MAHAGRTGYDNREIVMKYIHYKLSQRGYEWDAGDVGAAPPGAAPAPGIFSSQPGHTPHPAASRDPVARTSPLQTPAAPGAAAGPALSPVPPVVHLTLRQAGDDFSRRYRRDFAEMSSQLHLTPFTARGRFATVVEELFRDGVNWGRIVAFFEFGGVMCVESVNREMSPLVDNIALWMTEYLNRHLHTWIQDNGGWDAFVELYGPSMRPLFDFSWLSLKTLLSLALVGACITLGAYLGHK
UniProt Q07817: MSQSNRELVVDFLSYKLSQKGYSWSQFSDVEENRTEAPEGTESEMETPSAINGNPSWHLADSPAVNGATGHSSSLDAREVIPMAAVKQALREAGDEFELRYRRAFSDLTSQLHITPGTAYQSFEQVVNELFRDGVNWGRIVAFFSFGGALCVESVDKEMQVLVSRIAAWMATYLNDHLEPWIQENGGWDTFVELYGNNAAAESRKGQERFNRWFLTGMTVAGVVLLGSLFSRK
UniProt Q07820: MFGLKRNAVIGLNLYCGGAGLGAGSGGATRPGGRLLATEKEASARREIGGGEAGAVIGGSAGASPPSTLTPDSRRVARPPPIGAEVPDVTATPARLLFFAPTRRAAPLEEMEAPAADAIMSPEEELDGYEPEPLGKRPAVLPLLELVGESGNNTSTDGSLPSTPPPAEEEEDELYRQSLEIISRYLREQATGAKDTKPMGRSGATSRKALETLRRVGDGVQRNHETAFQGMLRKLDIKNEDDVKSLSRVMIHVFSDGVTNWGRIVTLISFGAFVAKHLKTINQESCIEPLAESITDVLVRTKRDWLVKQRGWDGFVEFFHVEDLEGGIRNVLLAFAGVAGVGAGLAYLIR

Tests used:
Assay in all cases: co-IP; HEK293T cells co-transfected with HA-ASB17 and a Flag-tagged partner; NP-40 lysis buffer (50 mM Tris-HCl pH 7.4, 150 mM NaCl, 1% NP-40, 1 mM EDTA, 5% glycerol); IP with anti-Flag (Figure 6A,B,E,G,I) or anti-HA (Figure 6C,D,F,H) at 4 C overnight, protein A/G-agarose, washes with 300 mM NaCl; immunoblot
Flag-ATG7 = target: T1, Flag-ATG7 (UniProt O95352)
T1 sequence: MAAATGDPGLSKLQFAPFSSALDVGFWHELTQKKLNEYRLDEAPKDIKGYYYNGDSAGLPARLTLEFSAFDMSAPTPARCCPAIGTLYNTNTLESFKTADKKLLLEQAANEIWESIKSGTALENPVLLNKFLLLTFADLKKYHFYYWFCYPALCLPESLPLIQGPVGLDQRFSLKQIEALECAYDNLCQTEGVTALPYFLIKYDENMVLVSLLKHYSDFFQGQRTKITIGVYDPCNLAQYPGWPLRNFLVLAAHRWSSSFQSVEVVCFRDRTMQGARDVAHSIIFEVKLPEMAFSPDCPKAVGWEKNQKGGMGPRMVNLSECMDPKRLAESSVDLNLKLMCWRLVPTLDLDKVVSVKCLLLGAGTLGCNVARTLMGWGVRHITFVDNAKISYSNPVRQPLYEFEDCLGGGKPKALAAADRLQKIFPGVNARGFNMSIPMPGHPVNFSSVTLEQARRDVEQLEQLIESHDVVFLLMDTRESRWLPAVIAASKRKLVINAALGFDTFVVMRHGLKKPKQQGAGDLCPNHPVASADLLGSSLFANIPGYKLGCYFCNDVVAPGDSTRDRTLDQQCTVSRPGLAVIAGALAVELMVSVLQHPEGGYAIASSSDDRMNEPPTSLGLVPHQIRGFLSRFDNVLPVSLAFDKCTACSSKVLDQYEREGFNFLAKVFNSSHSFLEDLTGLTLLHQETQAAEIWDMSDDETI

Flag-BCL2 = Flag-BCL2 (UniProt P10415)
[1] = target: T2, Flag-BCLW (B-cell leukemia/lymphoma w) (UniProt Q92843)
T2 sequence: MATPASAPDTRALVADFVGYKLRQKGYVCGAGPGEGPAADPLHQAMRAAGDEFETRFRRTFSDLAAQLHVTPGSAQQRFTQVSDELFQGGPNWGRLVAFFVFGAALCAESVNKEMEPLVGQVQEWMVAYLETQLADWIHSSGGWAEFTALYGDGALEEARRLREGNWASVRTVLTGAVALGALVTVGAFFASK

Flag-BCLX = Flag-BCLX (UniProt Q07817)
[2] = target: Flag-MCL1 (myeloid cell leukemia-1) (UniProt Q07820)

Measured: binding

B1: HA-tagged ASB17 (ankyrin repeat and SOCS box protein 17) (protein, UniProt Q8WXJ9 1-295)
chain: MSKSTKLCGKTSCPRSNIFCNLLDKIVKRPSLQFLGQWGYHCYEPRIYRSLAKILRYVDLDGFDALLTDYIAFVEKSGYRFEVSFNLDFTEICVNTILYWVFARKGNPDFVELLLKKTKDYVQDRSCNLALIWRTFTPVYCPSPLSGITPLFYVAQTRQSNIFKILLQYGILEREKNPINIVLTIVLYPSRVRVMVDRELADIHEDAKTCLVLCSRVLSVISVKEIKTQLSLGRHPIISNWFDYIPSTRYKDPCELLHLCRLTIRNQLLTNNMLPDGIFSLLIPARLQNYLNLEI
binds: Flag-ATG7 | Flag-BCL2 | [1] | Flag-BCLX | [2]
